Assay results published in the supplement of paper PMC11006884.
The list shows a part of the results, in another mix than the full data.

Chains of the proteins cited; added tags and fusions are not shown. Lines headed by an entry give the natural chain unless they say otherwise; changes in a name come on top.
UniProt Q13395: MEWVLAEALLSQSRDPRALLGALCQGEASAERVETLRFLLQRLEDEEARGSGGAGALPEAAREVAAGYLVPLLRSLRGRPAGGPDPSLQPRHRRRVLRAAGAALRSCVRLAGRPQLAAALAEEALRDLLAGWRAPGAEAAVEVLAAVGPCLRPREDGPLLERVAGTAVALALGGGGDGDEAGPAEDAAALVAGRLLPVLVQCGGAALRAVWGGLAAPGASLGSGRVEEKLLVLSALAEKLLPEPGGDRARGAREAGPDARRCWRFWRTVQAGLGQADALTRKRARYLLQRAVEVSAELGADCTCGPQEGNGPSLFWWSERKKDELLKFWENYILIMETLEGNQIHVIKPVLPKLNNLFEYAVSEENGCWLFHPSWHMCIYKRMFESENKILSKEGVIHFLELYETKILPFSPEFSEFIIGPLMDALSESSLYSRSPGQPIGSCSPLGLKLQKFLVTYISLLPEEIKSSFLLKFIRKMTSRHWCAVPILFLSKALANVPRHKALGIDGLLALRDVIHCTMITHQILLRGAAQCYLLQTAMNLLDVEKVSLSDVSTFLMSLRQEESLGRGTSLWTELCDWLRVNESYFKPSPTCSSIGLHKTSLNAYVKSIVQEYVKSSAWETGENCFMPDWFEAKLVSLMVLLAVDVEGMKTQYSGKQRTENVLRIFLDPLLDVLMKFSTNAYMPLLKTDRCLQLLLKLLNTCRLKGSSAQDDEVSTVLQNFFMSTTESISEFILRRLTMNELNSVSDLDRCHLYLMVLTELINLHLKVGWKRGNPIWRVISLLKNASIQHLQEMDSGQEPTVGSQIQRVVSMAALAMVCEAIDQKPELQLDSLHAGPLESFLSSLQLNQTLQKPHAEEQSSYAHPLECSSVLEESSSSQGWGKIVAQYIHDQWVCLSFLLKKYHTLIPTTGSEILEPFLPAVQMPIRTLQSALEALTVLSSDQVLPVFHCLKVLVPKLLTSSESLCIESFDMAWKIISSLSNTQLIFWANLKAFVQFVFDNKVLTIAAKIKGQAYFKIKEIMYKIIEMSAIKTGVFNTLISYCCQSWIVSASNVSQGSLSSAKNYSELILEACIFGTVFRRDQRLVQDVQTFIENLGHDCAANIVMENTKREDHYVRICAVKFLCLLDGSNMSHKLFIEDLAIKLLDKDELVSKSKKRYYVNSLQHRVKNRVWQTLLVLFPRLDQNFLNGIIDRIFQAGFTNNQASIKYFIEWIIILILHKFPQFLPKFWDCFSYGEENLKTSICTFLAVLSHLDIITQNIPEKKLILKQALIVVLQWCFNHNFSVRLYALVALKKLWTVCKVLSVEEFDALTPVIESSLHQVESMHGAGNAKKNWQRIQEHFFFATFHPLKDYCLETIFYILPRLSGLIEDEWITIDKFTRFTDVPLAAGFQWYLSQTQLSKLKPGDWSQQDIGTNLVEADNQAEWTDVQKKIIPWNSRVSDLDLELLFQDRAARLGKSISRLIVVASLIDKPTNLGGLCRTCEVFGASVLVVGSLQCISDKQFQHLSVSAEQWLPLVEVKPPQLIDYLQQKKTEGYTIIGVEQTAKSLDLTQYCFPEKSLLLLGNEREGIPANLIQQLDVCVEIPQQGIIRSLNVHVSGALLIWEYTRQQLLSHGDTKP
UniProt Q13425: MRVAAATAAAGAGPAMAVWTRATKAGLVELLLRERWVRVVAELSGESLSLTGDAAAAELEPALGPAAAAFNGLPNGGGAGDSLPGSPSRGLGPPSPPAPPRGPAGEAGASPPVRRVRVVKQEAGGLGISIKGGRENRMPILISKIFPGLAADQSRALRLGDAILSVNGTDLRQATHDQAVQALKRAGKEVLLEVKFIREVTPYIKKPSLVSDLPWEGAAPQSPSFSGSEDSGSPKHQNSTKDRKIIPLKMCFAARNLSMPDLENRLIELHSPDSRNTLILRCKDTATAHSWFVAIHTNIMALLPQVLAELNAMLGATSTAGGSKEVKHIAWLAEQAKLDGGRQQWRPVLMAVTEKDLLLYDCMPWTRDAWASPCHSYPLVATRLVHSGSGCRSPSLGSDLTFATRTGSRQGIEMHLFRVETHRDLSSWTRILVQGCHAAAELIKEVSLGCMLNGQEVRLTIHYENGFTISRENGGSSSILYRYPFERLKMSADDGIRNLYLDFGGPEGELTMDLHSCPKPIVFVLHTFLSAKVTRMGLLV
UniProt Q13162: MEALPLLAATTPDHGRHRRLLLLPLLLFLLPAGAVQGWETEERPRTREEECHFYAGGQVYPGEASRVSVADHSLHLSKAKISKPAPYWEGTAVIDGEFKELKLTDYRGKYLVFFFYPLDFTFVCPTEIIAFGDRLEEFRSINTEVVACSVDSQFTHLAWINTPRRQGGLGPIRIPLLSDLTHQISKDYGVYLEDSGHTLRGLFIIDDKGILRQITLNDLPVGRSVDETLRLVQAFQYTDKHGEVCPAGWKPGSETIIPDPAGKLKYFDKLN
UniProt Q12906, whole entry, looked up: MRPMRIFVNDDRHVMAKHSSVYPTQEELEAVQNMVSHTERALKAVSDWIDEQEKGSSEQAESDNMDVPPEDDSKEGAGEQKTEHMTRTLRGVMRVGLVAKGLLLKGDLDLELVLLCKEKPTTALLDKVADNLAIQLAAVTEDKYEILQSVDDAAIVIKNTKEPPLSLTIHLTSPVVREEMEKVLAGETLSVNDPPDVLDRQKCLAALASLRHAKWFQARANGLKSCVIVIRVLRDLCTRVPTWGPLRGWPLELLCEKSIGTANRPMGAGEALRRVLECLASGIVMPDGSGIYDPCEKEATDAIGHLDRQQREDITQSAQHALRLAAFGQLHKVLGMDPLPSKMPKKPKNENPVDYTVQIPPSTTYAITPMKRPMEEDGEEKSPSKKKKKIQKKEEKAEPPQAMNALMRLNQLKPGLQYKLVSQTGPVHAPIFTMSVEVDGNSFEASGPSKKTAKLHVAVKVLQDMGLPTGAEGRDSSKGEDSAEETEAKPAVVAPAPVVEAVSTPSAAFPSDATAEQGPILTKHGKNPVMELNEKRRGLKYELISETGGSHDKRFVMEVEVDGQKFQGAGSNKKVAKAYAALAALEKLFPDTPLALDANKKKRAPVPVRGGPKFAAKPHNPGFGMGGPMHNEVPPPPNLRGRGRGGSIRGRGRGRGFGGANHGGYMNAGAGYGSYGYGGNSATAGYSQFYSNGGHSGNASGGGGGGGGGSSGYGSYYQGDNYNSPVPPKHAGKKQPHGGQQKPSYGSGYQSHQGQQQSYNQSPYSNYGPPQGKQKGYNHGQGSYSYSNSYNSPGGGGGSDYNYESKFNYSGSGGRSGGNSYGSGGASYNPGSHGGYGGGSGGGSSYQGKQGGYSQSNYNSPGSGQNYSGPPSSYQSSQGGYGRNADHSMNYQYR
UniProt Q12933: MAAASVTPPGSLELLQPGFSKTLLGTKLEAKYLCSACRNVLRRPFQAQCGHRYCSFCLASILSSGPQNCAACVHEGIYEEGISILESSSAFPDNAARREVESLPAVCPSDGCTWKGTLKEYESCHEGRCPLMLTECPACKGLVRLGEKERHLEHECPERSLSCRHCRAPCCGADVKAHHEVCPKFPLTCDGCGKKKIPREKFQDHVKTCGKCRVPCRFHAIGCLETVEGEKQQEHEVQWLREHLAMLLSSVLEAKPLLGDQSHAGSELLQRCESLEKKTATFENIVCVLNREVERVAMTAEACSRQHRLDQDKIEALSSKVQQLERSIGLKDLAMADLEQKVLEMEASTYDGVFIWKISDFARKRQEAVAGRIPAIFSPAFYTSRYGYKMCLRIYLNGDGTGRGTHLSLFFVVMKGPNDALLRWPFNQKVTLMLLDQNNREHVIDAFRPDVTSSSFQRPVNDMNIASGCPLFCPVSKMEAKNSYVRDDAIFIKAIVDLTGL
UniProt Q13029: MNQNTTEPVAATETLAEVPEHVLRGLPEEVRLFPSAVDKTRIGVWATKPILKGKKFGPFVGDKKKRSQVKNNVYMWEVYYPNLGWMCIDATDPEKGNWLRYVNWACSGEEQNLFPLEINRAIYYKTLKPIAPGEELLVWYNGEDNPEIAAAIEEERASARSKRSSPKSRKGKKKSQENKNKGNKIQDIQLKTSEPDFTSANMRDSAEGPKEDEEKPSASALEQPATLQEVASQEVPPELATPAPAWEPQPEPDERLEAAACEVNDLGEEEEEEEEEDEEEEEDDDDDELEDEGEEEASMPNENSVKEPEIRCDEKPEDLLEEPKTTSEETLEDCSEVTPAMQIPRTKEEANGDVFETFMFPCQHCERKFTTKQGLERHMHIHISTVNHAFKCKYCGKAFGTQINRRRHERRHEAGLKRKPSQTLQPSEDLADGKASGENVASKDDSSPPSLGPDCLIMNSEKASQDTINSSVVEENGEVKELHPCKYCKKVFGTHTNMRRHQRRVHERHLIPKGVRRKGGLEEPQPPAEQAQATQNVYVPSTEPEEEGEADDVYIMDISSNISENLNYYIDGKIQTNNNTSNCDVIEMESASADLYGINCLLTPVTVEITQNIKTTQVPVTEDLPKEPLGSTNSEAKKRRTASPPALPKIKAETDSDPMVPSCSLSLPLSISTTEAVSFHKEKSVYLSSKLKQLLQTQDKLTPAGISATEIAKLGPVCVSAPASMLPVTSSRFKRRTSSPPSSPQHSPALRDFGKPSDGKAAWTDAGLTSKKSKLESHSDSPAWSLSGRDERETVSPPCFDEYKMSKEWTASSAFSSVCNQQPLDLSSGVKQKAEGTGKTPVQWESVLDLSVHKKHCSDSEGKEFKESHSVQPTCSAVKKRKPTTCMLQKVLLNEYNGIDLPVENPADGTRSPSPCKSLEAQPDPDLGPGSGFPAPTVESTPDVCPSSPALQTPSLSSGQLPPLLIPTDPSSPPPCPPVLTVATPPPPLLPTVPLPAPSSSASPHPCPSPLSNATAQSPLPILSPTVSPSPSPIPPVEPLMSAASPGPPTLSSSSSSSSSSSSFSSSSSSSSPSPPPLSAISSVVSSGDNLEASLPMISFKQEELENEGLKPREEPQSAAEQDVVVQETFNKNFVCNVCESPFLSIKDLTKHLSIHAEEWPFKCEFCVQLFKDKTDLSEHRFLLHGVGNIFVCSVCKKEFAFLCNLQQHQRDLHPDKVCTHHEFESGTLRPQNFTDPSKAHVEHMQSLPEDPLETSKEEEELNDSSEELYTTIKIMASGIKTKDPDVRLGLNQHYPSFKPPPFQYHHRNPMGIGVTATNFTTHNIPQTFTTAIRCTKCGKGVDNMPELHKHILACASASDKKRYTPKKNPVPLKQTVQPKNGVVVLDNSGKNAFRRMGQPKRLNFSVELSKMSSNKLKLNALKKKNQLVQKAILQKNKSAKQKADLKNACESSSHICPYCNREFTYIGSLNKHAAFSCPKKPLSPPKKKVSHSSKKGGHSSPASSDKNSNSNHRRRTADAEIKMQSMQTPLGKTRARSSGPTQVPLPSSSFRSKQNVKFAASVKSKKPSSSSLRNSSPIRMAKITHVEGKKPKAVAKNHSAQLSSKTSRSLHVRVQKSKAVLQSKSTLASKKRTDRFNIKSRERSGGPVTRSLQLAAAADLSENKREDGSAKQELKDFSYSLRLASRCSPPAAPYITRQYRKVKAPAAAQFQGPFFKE
UniProt Q04760: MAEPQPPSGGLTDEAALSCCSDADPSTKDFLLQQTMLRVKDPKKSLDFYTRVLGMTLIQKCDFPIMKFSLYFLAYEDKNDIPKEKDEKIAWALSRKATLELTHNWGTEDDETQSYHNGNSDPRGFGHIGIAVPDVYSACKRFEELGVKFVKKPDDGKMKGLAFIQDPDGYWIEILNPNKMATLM
UniProt Q09161: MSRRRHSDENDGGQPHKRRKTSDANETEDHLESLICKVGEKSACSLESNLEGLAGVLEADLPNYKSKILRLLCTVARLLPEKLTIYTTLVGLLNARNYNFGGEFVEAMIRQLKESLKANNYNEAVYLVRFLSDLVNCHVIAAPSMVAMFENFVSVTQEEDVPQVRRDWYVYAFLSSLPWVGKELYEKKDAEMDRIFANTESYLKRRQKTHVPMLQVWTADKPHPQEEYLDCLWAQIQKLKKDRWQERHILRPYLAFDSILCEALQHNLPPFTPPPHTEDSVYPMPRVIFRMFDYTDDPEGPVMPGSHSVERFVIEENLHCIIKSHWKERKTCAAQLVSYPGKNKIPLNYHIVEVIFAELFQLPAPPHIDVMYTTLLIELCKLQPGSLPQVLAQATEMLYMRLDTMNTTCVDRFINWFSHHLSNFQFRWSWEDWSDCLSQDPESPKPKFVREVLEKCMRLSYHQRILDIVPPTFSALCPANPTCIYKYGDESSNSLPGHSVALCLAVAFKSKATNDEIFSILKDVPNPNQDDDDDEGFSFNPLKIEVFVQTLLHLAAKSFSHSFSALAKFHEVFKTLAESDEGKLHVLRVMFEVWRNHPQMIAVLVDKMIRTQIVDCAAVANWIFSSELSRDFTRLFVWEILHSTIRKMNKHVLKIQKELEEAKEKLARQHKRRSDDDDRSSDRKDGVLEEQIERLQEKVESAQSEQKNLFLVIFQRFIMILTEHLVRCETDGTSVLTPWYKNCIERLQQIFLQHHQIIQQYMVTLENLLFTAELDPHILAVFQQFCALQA

These targets were tested with COC(=O)C#Cc1ccccc1 [methyl 3-phenylpropiolate] (assay: log2 ratio of iodoacetamide-alkyne labeling of the cysteine site, DMSO over compound (competition); higher = stronger covalent engagement of the cysteine by the compound, active = 1 or more). Details: 500 µM; treatment time 1 h; system: HEK293T cell lysate.
Summary of the method: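 HEK293T lysate (2 mg/mL) was incubated with electrophile (500 µM) or vehicle for 1 h at ambient temperature and then with iodoacetamide alkyne for 1 h. Labelled proteins were clicked to sCIP-TMT reagents, pooled, digested, enriched on streptavidin and measured by Orbitrap Eclipse LC-MS/MS with FAIMS, with FragPipe quantification. The per-cysteine log2 competition ratio is mean control-channel reporter intensity over mean compound-channel reporter intensity. Across three replicates with duplicate channels, cysteines quantified in only one replicate were excluded.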

log2 ratio of iodoacetamide-alkyne labeling, inactive:
UniProt Q13155_C168 0.346, TARBP1 C24 (UniProt Q13395) 0.0551, UniProt Q09028_C203 0.00172, TP53BP1 C1159 (UniProt Q12888) 0.462, ACACA C2075 (UniProt Q13085) -0.155, UniProt Q13155_C306 0.55, SNTB2 C374 (UniProt Q13425) 0.146, PRDX4 C245 (UniProt Q13162) 0.5, COASY C357 (UniProt Q13057) 0.165, CHD3 C1464 (UniProt Q12873) 0.281, TARBP1 C1556 (UniProt Q13395) 0.00206, FMR1 C584 (UniProt Q06787) 0.303, DHX9 C12 (UniProt Q08211) -0.068, EIF4G1 C1265 (UniProt Q04637) 0.0211, UniProt Q02750_C277 0.399, TRIM32 C23 (UniProt Q13049) -0.174, DST C5527 (UniProt Q03001) -0.0122, ILF3 C255 (UniProt Q12906) 0.35, UniProt Q13243_C63 0.221, UniProt Q13163_C300 -0.976, AKAP13 C1414 (UniProt Q12802) 0.566, ATM C755 (UniProt Q13315) -0.0141, TRAF2 C287 (UniProt Q12933) 0.192, PRDM2 C718 (UniProt Q13029) 0.513, GLO1 C61 (UniProt Q04760) -0.0479, UniProt Q07955_C16 -0.0793, RBPJ C397 (UniProt Q06330) 0.64, CDC16 C46 (UniProt Q13042) 0.152, NCBP1 C503 (UniProt Q09161) 0.295, DLX2 C230 (UniProt Q07687) 0.305, NFX1 C295 (UniProt Q12986) 0.68, FLII C46 (UniProt Q13045) 0.205, MTA1 C68 (UniProt Q13330) 0.278, FKBP4 C396 (UniProt Q02790) 0.0815

log2 ratio of iodoacetamide-alkyne labeling, active:
PRDX4 C51 (UniProt Q13162) 1.66, CHAF1A C190 (UniProt Q13111) 1.08, GOLGA2 C794 (UniProt Q08379) 1.07
